Source: paper PMC6932820
No constants are given. Whether binding was seen depends on the method and setting. In cells and extracts the contact can be indirect. Some entries that bind do so weakly or less than the wild type.

Chains of the proteins cited; added tags and fusions are not shown.
UniProt Q9QR71: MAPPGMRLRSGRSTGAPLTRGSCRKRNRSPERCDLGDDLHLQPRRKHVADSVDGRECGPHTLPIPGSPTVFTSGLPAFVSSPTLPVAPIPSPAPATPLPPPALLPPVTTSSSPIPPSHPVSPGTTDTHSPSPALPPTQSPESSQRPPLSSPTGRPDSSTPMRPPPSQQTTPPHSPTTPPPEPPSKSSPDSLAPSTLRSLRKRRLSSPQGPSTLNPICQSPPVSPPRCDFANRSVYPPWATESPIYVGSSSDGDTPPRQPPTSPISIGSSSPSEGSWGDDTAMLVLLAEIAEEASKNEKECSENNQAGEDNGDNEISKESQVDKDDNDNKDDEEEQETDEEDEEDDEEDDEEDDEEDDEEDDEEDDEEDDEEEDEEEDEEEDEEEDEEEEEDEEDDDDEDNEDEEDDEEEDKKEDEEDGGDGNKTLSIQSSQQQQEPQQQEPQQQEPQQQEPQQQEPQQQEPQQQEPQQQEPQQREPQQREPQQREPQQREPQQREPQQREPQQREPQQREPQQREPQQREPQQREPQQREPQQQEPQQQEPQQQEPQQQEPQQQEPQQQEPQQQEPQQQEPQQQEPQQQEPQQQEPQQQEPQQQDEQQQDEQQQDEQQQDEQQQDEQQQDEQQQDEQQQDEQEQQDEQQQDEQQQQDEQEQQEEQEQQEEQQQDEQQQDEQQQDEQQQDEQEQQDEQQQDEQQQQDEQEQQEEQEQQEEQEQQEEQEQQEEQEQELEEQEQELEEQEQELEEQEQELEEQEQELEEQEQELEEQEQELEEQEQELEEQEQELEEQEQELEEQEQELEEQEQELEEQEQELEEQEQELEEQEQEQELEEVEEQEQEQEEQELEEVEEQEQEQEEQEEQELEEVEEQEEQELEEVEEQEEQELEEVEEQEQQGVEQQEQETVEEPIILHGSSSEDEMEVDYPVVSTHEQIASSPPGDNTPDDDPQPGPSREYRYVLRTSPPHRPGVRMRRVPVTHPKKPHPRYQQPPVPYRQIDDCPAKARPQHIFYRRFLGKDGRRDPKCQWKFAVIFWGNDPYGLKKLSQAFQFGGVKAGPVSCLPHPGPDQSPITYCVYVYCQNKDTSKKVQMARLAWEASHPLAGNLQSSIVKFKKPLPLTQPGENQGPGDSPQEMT
UniProt P61956: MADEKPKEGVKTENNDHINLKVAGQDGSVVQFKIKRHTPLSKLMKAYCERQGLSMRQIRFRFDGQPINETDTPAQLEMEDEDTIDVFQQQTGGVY
UniProt Q13263: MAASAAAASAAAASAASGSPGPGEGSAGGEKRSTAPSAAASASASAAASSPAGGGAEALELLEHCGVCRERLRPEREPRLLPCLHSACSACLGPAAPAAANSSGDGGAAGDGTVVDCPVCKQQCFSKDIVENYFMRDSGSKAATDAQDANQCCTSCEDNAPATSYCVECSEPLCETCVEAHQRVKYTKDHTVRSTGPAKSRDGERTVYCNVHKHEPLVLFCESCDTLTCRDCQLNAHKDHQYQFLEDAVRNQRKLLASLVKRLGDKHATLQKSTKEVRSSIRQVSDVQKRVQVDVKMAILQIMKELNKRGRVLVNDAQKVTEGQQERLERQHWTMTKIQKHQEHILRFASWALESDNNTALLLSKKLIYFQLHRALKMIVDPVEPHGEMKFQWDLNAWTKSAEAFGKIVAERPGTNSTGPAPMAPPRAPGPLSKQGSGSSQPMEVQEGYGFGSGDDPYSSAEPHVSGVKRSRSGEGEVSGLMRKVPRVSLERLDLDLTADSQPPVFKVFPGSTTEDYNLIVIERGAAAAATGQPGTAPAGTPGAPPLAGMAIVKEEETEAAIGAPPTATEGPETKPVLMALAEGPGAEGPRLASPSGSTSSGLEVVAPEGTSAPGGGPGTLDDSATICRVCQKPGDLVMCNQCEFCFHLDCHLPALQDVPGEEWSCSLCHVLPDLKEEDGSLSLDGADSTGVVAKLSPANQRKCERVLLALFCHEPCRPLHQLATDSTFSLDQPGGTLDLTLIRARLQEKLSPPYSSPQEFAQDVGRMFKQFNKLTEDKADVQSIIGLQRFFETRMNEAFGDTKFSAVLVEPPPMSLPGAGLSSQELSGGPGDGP

What was measured:
[1] = target: myc-tagged LANA (Kaposi's sarcoma-associated herpesvirus (KSHV)) (UniProt Q9QR71); assay: co-IP; HEK293 cells transfected with LANA-myc and FLAG-SUMO2, untreated or treated with DMSO, Cambogin or Garcimultiflorone H (100 nM); RIPA lysates with NEM; IP and immunoblot with the indicated antibodies
FLAG-tagged SUMO2 = FLAG-tagged SUMO2 (UniProt P61956); assay: as above
[2] = target: endogenous LANA in PEL cells (Kaposi's sarcoma-associated herpesvirus (KSHV) (endogenous in BCP1)) (UniProt Q9QR71); assay: co-IP; endogenous proteins in BCP1 (PEL) cells, untreated or treated with DMSO or Cambogin (100, 500 nM) for 48 h; IP and immunoblot with the indicated antibodies

Substance	binding [1]	binding (FLAG-tagged SUMO2)	binding [2]
FLAG-tagged SUMO2 (from UniProt P61956 1-95)	binds		
KAP1 (from UniProt Q13263 1-835)	binds	binds	
endogenous SUMO2 in PEL cells (from UniProt P61956 1-95)			binds
